Experimental findings from article PMC9675287 are described below.

Amino acid sequences for entries named in this document (tags omitted). Residues count along the entry.
UniProt P05113, residues 20-134: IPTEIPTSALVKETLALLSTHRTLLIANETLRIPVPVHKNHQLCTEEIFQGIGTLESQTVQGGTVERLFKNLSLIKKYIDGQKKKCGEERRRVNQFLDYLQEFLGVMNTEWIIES

In the assay the target is T1, IL-5R on HEK 293T-IL-5R stable cells (UniProt Q01344).
T1 sequence: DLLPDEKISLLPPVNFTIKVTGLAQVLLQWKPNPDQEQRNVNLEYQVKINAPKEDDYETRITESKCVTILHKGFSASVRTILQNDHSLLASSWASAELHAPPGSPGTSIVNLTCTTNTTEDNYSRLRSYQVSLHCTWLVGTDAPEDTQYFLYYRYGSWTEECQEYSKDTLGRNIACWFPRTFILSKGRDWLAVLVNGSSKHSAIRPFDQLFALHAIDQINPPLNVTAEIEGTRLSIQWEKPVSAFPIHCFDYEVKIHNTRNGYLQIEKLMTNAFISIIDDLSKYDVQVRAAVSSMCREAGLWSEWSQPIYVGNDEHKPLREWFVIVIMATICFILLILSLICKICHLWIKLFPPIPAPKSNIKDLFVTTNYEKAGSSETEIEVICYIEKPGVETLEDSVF
The assay is described as follows: flow cytometry on cells; HEK 293T-IL-5R stable cells incubated with purified biotin-labelled IL-5-Fc and a gradient of IL-5 Nbs or Nucala analogue; stained with streptavidin-PE; MFI read by FACS; only the binder purified.

No constants are given. Whether binding was seen depends on the method and setting. Some binding calls cover weakened binding; strength is not graded here.

As for “human IL-5-Fc (from UniProt P05113 20-134) (Fc fusion)”, the binding result is listed as “binds”.
